Taken from: PubChem BioAssay AID1159584 (Peter MacCallum Cancer Centre, 2016)
The whole screen tested about 18,000 reagents; this is a random part of them. Further read-outs or replicates are left out here. Not stated in the record: the amount of reagent, the time to read-out.

Aim: 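Genes that CDH1-null MCF10A cells selectively depend on to survive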 (primary screen)
Cell system: human MCF10A breast epithelial cells, parental and CDH1-null
Knock-down reagent: siRNA against human genes
Detection: 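ATP luminescence (CellTiter-Glo) viability per line relative to mean mock wells over all plates, and the ratio of CDH1-null to parental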
Scale: CDH1-null / parental viability ratio: higher = CDH1-null cells survive relatively better than parental

Gene,CDH1-null / parental viability ratio
AUTS2 (activator of transcription and developmental regulator AUTS2),1.21
GSDMD (gasdermin D),1.14
ABHD14A (abhydrolase domain containing 14A),0.97
KRT76 (keratin 76),0.95
EPOR (erythropoietin receptor),0.97
COPZ1 (coat protein complex I subunit zeta 1),1.17
ANAPC5 (anaphase promoting complex subunit 5),1.01
VMA12 (vacuolar ATPase assembly factor VMA12),0.78
KLHL30 (kelch like family member 30),0.89
GRIK4 (glutamate ionotropic receptor kainate type subunit 4),1.13
TMEM182 (transmembrane protein 182),1.1
CARMIL1 (capping protein regulator and myosin 1 linker 1),1.02
RBMY1A1 (RNA binding motif protein Y-linked family 1 member A1),1.17
KITLG (KIT ligand),0.99
CHRNG (cholinergic receptor nicotinic gamma subunit),1.1

The list goes on, starting with the last 2 of the part before.
Gene,CDH1-null / parental viability ratio
KITLG (KIT ligand),0.99
CHRNG (cholinergic receptor nicotinic gamma subunit),1.1
FAT4 (FAT atypical cadherin 4),0.89
SLC20A2,1.16
GPR180 (G protein-coupled receptor 180),1.11
PPP1R1A (protein phosphatase 1 regulatory inhibitor subunit 1A),1.64
LGALS14 (galectin 14),1.27
ADAM7 (ADAM metallopeptidase domain 7),1.27
IL21 (interleukin 21),0.63
"H3-4 (H3.4 histone, cluster member)",1.22
PIK3IP1 (phosphoinositide-3-kinase interacting protein 1),1
CLIP1 (CAP-Gly domain containing linker protein 1),0.85
SSTR1 (somatostatin receptor 1),0.65
TP53 (tumor protein p53),1.15
PPP1R12B (protein phosphatase 1 regulatory subunit 12B),1.38
